Data from the supplement of paper PMC10849652.
The other results are listed elsewhere or left out.

Chains of the proteins cited; added tags and fusions are not shown. Lines headed by an entry give the natural chain unless they say otherwise; changes in a name come on top.
UniProt O00716: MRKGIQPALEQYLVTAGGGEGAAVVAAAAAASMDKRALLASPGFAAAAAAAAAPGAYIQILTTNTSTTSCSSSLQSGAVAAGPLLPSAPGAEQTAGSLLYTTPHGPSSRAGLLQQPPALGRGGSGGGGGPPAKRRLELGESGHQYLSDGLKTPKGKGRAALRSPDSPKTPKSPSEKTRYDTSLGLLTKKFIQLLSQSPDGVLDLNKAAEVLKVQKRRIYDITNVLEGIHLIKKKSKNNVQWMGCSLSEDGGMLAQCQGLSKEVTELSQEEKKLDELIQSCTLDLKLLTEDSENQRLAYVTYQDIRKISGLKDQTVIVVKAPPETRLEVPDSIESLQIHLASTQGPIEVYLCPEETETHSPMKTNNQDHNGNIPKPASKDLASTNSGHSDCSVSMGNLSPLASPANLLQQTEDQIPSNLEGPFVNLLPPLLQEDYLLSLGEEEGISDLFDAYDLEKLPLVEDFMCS
UniProt Q13409, whole entry, looked up: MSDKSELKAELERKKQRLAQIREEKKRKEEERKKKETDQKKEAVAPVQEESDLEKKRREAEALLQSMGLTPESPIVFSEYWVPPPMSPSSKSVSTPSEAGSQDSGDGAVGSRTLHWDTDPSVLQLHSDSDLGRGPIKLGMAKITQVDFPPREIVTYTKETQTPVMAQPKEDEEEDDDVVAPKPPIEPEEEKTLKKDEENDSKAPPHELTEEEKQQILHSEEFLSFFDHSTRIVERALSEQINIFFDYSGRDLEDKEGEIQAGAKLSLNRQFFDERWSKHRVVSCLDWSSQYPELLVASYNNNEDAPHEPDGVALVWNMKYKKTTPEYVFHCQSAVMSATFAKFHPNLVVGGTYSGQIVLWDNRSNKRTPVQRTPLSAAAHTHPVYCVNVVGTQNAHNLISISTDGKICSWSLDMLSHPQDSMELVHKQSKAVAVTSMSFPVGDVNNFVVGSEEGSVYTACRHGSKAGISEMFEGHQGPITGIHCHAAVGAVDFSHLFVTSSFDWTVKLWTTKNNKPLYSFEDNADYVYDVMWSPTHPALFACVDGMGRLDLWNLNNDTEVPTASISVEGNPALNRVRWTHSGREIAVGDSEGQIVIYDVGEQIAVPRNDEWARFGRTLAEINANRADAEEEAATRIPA
UniProt Q6UX65: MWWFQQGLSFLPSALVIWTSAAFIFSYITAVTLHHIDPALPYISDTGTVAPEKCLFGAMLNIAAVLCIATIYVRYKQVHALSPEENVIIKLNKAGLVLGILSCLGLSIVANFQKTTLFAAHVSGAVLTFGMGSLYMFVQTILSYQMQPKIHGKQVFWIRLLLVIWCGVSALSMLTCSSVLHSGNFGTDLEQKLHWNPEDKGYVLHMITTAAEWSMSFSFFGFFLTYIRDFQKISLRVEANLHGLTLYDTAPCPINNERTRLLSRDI
UniProt Q8NF50: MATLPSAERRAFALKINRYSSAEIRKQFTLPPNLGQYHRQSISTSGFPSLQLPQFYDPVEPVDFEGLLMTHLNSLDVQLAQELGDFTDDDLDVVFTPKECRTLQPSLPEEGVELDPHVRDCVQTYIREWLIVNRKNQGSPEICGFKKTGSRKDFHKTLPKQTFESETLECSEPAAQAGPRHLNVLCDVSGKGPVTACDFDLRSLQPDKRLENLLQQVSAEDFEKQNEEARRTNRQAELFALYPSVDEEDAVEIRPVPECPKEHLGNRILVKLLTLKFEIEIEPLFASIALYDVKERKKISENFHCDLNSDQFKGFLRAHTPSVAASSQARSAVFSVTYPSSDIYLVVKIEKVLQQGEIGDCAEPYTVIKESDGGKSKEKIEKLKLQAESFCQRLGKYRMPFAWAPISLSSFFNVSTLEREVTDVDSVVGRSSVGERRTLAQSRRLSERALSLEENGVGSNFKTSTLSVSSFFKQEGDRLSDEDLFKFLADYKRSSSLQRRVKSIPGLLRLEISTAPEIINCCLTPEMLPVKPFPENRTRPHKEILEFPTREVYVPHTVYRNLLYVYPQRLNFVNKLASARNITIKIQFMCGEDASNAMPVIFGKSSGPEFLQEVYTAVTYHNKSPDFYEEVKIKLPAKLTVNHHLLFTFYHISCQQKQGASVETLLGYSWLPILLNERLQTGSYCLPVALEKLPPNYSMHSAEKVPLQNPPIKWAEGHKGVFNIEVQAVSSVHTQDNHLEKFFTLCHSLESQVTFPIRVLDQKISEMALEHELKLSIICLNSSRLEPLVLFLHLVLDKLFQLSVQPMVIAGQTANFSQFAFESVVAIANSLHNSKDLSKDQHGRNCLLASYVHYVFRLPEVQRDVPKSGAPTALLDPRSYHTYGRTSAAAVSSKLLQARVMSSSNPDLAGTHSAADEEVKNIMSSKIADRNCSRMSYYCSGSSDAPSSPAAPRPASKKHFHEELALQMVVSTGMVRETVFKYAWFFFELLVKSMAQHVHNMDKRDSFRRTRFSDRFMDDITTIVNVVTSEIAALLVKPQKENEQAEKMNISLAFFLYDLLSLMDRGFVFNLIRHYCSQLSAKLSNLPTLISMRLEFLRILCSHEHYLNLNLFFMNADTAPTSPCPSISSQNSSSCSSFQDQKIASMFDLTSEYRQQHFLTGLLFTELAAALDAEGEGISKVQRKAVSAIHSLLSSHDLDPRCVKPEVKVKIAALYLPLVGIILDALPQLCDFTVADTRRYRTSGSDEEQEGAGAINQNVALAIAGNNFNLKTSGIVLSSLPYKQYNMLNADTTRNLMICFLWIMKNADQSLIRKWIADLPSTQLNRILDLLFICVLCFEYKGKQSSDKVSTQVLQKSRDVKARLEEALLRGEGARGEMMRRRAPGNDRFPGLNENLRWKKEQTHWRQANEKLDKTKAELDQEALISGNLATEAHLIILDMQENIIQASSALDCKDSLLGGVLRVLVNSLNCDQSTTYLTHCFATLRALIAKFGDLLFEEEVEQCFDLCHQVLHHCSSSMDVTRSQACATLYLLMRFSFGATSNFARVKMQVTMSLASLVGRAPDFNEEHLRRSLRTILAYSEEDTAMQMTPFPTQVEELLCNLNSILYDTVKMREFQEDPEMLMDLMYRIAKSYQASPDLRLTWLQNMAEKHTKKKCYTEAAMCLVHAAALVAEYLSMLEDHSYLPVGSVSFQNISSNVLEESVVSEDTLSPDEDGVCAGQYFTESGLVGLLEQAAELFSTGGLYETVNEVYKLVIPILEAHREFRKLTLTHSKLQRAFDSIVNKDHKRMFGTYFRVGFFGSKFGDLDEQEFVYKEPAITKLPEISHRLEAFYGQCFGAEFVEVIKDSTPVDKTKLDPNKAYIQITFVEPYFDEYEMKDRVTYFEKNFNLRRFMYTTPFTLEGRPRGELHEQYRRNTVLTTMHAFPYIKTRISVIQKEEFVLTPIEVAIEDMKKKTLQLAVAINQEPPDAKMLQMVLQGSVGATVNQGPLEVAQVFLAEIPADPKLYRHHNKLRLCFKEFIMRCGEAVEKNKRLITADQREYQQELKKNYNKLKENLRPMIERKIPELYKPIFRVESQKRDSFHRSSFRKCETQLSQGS
UniProt Q9H410: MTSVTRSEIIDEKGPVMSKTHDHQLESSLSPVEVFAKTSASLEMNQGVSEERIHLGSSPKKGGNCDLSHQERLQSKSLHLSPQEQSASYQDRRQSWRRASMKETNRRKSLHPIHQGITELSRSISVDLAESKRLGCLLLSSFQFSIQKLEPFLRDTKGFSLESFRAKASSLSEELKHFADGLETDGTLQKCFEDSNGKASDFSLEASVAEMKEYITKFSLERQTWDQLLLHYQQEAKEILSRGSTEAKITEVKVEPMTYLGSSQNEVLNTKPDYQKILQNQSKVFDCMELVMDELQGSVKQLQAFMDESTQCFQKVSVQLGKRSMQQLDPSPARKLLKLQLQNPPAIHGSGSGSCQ
UniProt P63172, whole entry, looked up: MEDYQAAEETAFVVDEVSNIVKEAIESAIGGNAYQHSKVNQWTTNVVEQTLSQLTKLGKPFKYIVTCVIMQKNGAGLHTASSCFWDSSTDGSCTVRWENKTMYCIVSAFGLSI
UniProt O00429, whole entry, looked up: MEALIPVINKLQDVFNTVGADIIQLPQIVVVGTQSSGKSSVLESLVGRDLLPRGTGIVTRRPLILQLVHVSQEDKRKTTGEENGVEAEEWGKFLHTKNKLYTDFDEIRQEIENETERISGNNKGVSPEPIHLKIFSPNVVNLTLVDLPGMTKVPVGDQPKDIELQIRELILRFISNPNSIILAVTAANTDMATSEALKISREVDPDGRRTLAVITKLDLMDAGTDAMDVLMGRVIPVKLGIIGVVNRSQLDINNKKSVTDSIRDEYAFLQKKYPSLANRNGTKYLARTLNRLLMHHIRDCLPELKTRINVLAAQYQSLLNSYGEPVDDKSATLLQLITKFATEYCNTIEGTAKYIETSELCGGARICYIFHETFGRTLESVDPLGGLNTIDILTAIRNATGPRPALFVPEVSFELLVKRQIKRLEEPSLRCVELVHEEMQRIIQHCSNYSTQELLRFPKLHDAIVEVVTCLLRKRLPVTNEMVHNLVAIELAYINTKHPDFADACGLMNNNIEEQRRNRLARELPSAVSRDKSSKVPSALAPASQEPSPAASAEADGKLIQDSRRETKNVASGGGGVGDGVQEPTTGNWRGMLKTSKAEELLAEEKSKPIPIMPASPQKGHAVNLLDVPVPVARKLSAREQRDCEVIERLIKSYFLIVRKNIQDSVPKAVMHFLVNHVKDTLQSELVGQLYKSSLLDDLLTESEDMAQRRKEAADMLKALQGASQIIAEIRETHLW
UniProt Q8NBA8: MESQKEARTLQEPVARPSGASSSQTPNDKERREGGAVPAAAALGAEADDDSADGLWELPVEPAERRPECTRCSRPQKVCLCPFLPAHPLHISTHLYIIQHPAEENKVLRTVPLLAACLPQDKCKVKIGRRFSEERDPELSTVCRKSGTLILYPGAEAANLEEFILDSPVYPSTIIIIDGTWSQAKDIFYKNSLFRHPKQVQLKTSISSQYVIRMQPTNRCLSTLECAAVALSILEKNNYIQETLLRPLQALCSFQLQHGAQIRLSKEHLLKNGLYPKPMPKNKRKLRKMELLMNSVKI
UniProt Q99956: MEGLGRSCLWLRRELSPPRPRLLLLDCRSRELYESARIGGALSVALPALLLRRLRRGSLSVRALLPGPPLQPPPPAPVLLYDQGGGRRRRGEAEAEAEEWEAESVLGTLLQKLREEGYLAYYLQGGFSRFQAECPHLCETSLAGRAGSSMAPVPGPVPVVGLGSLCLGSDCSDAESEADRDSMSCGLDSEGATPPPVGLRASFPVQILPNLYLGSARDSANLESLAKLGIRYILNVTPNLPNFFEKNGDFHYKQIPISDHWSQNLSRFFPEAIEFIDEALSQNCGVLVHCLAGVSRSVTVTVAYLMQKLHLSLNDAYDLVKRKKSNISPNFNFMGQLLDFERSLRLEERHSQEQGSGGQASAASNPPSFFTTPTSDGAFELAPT
UniProt Q99704: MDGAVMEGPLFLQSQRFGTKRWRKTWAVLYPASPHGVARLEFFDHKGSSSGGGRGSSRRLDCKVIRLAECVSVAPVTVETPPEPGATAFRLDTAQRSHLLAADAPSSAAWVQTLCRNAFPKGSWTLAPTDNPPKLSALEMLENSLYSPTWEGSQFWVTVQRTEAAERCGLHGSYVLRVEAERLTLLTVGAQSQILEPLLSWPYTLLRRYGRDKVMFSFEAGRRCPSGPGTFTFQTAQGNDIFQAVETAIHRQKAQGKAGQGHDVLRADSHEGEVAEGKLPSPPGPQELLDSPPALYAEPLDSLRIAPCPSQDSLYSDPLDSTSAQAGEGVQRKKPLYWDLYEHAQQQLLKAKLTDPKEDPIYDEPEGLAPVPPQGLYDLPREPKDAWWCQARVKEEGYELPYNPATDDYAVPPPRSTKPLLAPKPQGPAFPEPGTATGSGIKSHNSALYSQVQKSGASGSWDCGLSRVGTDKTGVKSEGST
UniProt Q6P3W2: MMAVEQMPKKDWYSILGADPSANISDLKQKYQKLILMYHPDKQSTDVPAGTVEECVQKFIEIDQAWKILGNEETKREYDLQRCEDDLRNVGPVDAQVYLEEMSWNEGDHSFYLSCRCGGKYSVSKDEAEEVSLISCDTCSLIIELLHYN
UniProt Q96DC8: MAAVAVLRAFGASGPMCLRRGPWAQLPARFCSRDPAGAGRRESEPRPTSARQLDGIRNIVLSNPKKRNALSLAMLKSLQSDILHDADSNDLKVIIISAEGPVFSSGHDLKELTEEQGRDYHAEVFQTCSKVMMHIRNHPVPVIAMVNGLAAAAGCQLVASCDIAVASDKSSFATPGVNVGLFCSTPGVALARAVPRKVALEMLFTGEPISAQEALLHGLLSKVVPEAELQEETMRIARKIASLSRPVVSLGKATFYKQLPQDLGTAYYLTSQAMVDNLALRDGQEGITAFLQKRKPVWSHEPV
UniProt Q86YN1: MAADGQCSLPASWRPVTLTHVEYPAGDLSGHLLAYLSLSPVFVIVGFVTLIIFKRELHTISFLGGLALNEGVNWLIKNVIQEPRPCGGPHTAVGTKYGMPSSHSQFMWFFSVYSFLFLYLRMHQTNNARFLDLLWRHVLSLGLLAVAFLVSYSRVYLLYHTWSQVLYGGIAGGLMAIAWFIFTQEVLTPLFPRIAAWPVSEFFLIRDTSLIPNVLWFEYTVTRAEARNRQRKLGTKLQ

Compound: CC1=C(C=C(C=C1)NC(=O)C2=CC(=CC=C2)C(C)(C)C#N)NC3=CC4=C(C=C3)N=CN(C4=O)C
Test: log2 fold change, soluble protein after heating vs DMSO (PISA); higher = thermal stabilisation; K562 cells, 10 uM, 30 min; active = over 0.2 and 3.5 SD of the protein, either way, in both replicates (recomputed)
Summary of the method: (§1)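 Values are thermal stability changes relative to control samples and are taken from duplicates. They are stated as log2 fold changes. Before quantification by TMTpro 16plex LC-MS/MS with equalised channel sums, K562 cells at 2×10^6 cells/mL were treated with 10 μM compound for 30 min, heated in aliquots for 3 min across 48°C-58°C, pooled, extracted in PBS with 0.5% NP-40 at 4°C, and centrifuged at 21,000xg for 90 min to give the soluble supernatant.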

| Target | log2 fold change |
| --- | --- |
| DOP1B (UniProt Q9Y3R5) | inactive: 0.021 |
| E2F3 (UniProt O00716) | inactive: -0.042 |
| DYNC1I2 isoform 2 (UniProt Q13409) | inactive: 0.006 |
| ECD isoform 3 (UniProt O95905) | inactive: -0.015 |
| DRAM2 (UniProt Q6UX65) | inactive: 0.025 |
| E4F1 (UniProt Q66K89) | inactive: 0.086 |
| EAPP (UniProt Q56P03) | inactive: 0.015 |
| DNTTIP2 (UniProt Q5QJE6) | inactive: 0.033 |
| DOCK8 (UniProt Q8NF50) | inactive: -0.094 |
| DNPEP (UniProt B9ZVU2) | inactive: -0.115 |
| DSN1 (UniProt Q9H410) | inactive: -0.02 |
| DTD2 (UniProt Q96FN9) | inactive: 0.005 |
| DNAJC16 (UniProt Q9Y2G8) | inactive: -0.023 |
| DNM2 isoform 4 (UniProt P50570) | inactive: 0.062 |
| DYRK1A isoform 2 (UniProt Q13627) | inactive: -0.025 |
| DYNLT1 (UniProt P63172) | inactive: 0.089 |
| DNM1L isoform 2 (UniProt O00429) | inactive: -0.131 |
| DTWD2 (UniProt Q8NBA8) | inactive: 0.019 |
| DUSP9 (UniProt Q99956) | inactive: 0.015 |
| DONSON (UniProt Q9NYP3) | inactive: 0.043 |
| DPH3 (UniProt Q96FX2) | inactive: -0.005 |
| DOK1 (UniProt Q99704) | inactive: -0.303 |
| DNAJC24 (UniProt Q6P3W2) | inactive: -0.024 |
| DPYSL2 (UniProt Q16555) | inactive: -0.056 |
| ECHDC3 (UniProt Q96DC8) | inactive: 0.121 |
| DYM (UniProt Q7RTS9) | inactive: 0.015 |
| DNPEP (UniProt C9JBE1) | inactive: -0.218 |

Compound: CC1=C(C=C(C=C1)NC(=O)C2=CC(=CC=C2)N(C)C)NC(=O)C3=CC=C(C=C3)O
Test: as above
Summary of the method: as §1

| Target | log2 fold change |
| --- | --- |
| DOP1B (UniProt Q9Y3R5) | inactive: 0.026 |
| E2F3 (UniProt O00716) | inactive: 0.057 |
| DYNC1I2 isoform 2 (UniProt Q13409) | inactive: -0.054 |
| ECD isoform 3 (UniProt O95905) | inactive: -0.061 |
| E4F1 (UniProt Q66K89) | inactive: 0.142 |
| EAPP (UniProt Q56P03) | inactive: 0.041 |
| DNTTIP2 (UniProt Q5QJE6) | inactive: 0.028 |
| DOCK8 (UniProt Q8NF50) | inactive: -0.051 |
| DOLPP1 (UniProt Q86YN1) | inactive: 0.012 |
| DSN1 (UniProt Q9H410) | inactive: -0.096 |
| DNM2 isoform 4 (UniProt P50570) | inactive: -0.001 |
| DYRK1A isoform 2 (UniProt Q13627) | inactive: 0.061 |
| DYNLT1 (UniProt P63172) | inactive: -0.149 |
| DNM1L isoform 2 (UniProt O00429) | inactive: 0.017 |
| DTWD2 (UniProt Q8NBA8) | inactive: -0.025 |
| DUSP9 (UniProt Q99956) | inactive: 0.173 |
| DOCK10 (UniProt Q96BY6) | inactive: 0.432 |
| DONSON (UniProt Q9NYP3) | inactive: 0.096 |
| DNAJC24 (UniProt Q6P3W2) | inactive: 0.368 |
| ECHDC3 (UniProt Q96DC8) | inactive: -0.074 |
| DNAL1 (UniProt Q4LDG9) | inactive: 0.049 |
| DYM (UniProt Q7RTS9) | inactive: -0.015 |
